Measurements: PubChem BioAssay AID493014 (National Center for Advancing Translational Sciences (NCATS), 2011)
Out of some 340,000 compounds screened, about 170 (0.05%) were called active. This list was built around the results that the source calls inconclusive (neither active nor inactive); the mix of calls is not that of the screen. Calls come from the whole dose curve; as a rule, active = well fitted inhibition curve with a large enough effect in the signal ratio, with a control signal flat (not every such curve was filed as active); inconclusive = small, poorly fitted or top-dose-only effect, or effect the other way, or a change in a side signal; inactive = flat fitted curve, though single readings scatter; the % refers to the signal ratio. Potencies beside an inconclusive call are fits to weak or partial responses and may not hold up.

experiment: qHTS Assay to Find Inhibitors of Chronic Active B-Cell Receptor Signaling; settings: ABC-DLBCL IkBa-CBG/CBR reporter, luminescence ratio (green luciferase fused to IkBa over red control in TMD8 lymphoma cells), 4 h; activity change, negative = inhibition: at 46.1 µM (top of the series) unless noted;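 for activity change, negative = inhibition: plate controls were basal doxycycline-induced cells for no effect and cells given 10 µM MG132 for full effect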
Method in brief: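 Compounds up to 46 uM were incubated four hours with TMD8 cells whose green CBG68 luciferase is fused to IkappaBalpha; red CBR luminescence normalised the signal, and concentration-effect curves were fitted to fusion, red and ratio data.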
Potency is the fitted concentration of half-maximal effect.

| SMILES | activity change, negative = inhibition | Potency |
| --- | --- | --- |
| Cc1cc2ncn(/N=C/c3ccc4c(c3)OCO4)c2cc1C | inconclusive: 1.02% | – |
| O=C(Nc1ccc(OC(F)(F)F)cc1)c1ccc2ccccc2n1 | inconclusive: 23.8% | – |
| CCCCNC(=O)c1cc2cc(CC)ccc2[nH]1 | inactive: 1.48% | – |
| Cc1cccc(C(=O)Nc2ccc(C(=O)N/N=C/c3ccc4c(c3)OCO4)cc2)c1 | – | inconclusive: 1 µM [falling, full curve, poor fit] |
| O=C(N/N=C/c1c[nH]c2ccc(Br)cc12)c1ccccn1 | – | inconclusive: 20 µM [falling, single point] |
| NS(=O)(=O)c1ccc2nc(NC(=O)c3ccncc3)sc2c1 | – | inconclusive: 35.5 µM [rising, single point] |
| Cc1nn(Cc2ccc(F)cc2)c2sc(C(=O)Nc3nccs3)cc12 | inactive: 0.433% | – |
| CCC(=O)OCCNc1cc(Sc2nccn2C)c2nonc2c1[N+](=O)[O-] | inconclusive: -21.9% | – |
| C=CCNc1cc(C(F)(F)F)nc(-c2ccccn2)n1 | – | inconclusive: 22.4 µM [falling, partial curve, poor fit] |
| COc1cccc(-c2nnc3sc(-c4ccc(C)cc4)nn23)c1 | inconclusive: 0.0422% | – |
| Cc1ccc(C(=O)N2c3ccccc3N(Cc3ccccc3)C(=O)C2(C)C)cc1 | inconclusive: 23.7% | – |
| Cc1nc2nc(SCc3ccc(F)cc3Cl)nn2c(C)c1Cc1ccccc1 | inconclusive: 16.2% | – |
| CSc1ccc(C(=O)C2CCCN(C(=O)c3nn(C)c(=O)c4ccccc34)C2)cc1 (stereo not given) | inconclusive: 10.1% | – |
| COc1cccc(C(=O)NNC2=C(C(=O)C(F)(F)F)CCC2)c1 | – | inconclusive: 3.98 µM [falling, partial curve] |
| CCCn1nc(C(=O)NC2CCCC2)c2ccccc2c1=O | inactive: -1.07% | – |
| CC(C)(C)OC(=O)C[C@H]1C/C=C\C[C@H](CC(=O)N(CCO)Cc2ccccc2)C(=O)N[C@H](C(C)(C)C)COC1=O | inactive: 3.73% | – |
| CCOc1ccc(C(=O)n2cc(C(=O)OC)c3ccccc32)cc1OCC | inactive: -10.4% | – |
| CCCCOc1ccc(C(=O)CCN2CCCCC2)cc1 | inconclusive: 10.2% | – |
| COc1ccc(/C=N/Nc2ncnc(Cl)c2N)cc1OC | inactive: 4.1% | – |
| O=C(Nc1nc2ccccc2n1CCOc1ccc(Cl)cc1)c1ccco1 | inactive: -4.08% | – |
| COc1ccccc1-c1nnc(SCC(=O)NC2CCCCC2)o1 | – | inconclusive: 29.1 µM [falling, single point] |
| NC(=O)C(=CNc1nc(-c2ccc(Cl)c(Cl)c2)cs1)C(N)=O | inconclusive: -0.416% | – |
| COC(=O)C1=CN(c2ccc(F)cc2)C=C(C(=O)OC)C1c1ccc(O)cc1 | inconclusive: -14.3% | – |
| Cc1ccc(NC(=O)Cn2nc([N+](=O)[O-])c(Br)c2C)cc1C | inactive: -1.36% | – |
| Cc1oc(CC(C)C)c(CN)c1C(=O)O | inconclusive: 6.76% | – |
| O=c1[nH][nH]c(C(F)(F)F)c1C=NCc1ccc(Cl)cc1 | inactive: -0.187% | – |
| CCCCN(C(=O)CSc1cc(C)c2ccc(OC)cc2n1)c1c(N)n(Cc2ccccc2)c(=O)[nH]c1=O | inconclusive: -8.97% | – |

In the list so far, these contain a furan ring, fused or not.

| SMILES | activity change, negative = inhibition | Potency |
| --- | --- | --- |
| O=C(Nc1nc2ccccc2n1CCOc1ccc(Cl)cc1)c1ccco1 | inactive: -4.08% | – |
| Cc1oc(CC(C)C)c(CN)c1C(=O)O | inconclusive: 6.76% | – |

(next part)

| SMILES | activity change, negative = inhibition | Potency |
| --- | --- | --- |
| CCN1CCN(C(=O)C2CCN(Cc3nc(-c4cccc(Cl)c4)oc3C)CC2)CC1 | – | inconclusive: 3.66 µM [rising, full curve] |
| Cc1cccc2cc(C(c3nnnn3Cc3ccccc3)N3CCCc4ccccc43)c(=O)[nH]c12 (stereo not given) | inactive: -10.9% | – |
| CCCn1c(N)c(C(=O)CN2CCN(S(=O)(=O)c3cccc(Cl)c3)CC2)c(=O)[nH]c1=O | – | inconclusive: 29.1 µM [falling, single point] |
| C[C@@H]1C=C(C(=O)NCc2nc3ccccc3[nH]2)O[C@H](OCc2ccc(CO)cc2)C1 | inconclusive: -21.4% | – |
| COc1ccc(NC(=O)COc2ccc(CNCCCN3CCOCC3)cc2OC)cc1 | inconclusive: 0.085% | – |
| CC(=O)N1CC(C(=O)Nc2ccc3c(c2)OCO3)Oc2ccccc21 (stereo not given) | inactive: -8.65% | – |
| COCCNC(=O)Cc1c(C)c2cc3c(cc2oc1=O)OC(C)(C)CC3 | inconclusive: -15.3% | – |
| O=C(CSc1nnc(-c2cccs2)n1-c1ccccc1)Nc1ccccc1 | inactive: -4.84% | – |
| COc1cccc(NC(=O)CSc2nc3ncc(Br)cc3[nH]2)c1 | – | inconclusive: 5.01 µM [falling, partial curve, poor fit] |
| C[C@@H]1CN([C@H](C)CO)C(=O)c2cc(NC(=O)Nc3ccc(C(F)(F)F)cc3)ccc2O[C@H]1CN(C)Cc1ccc(Cl)c(Cl)c1 | inactive: 2.93% | – |
| C=CCc1c(C)nc2cc(-c3ccccc3)[nH]n2c1=O | – | inconclusive: 35.5 µM [falling, single point] |
| CC(=O)c1ccc(Cc2cnc(N)s2)cc1 | inconclusive: -8.66% | – |
| CN(C)/C=N/c1c(C#N)cnn1-c1nc2ccccc2s1 | inconclusive: -0.357% | – |
| Cc1ccc(S(=O)(=O)CCC(=O)OCC(=O)N(Cc2ccccc2)C(C)C)cc1 | inactive: -3.1% | – |
| COc1c(/C=C2\SC(=Nc3ccccc3Cl)NC2=O)cccc1[N+](=O)[O-] | – | inconclusive: 11.2 µM [falling, partial curve] |
| Cc1nn(C)c(C)c1NS(=O)(=O)c1ccccc1 | inconclusive: 2.21% | – |
| CC(NC(c1ccccc1)c1ccccc1)C(=O)N1CCCc2ccccc21 (stereo not given) | inconclusive: 0.14% | – |
| Cc1nn2cc(-c3cccc(Cl)c3)cnc2c1Br | inconclusive: 8.68% | – |
| COc1ccc(NC(=O)CN(C)C(=O)c2ccccc2OCC(=O)Nc2cccc(C(F)(F)F)c2)cc1 | inactive: 6.95% | – |
| O=C(CCc1nnc(C2(c3ccc(Cl)cc3)CCC2)o1)NC1CC1 | inconclusive: 21.2% | – |
| CCOC(=O)C1=C(COC(=O)/C=C/c2ccc(SC)cc2)NC(=O)NC1C (stereo not given) | inconclusive: 16.2% | – |
| COc1cc(OC)cc(C(=O)NCC(=O)OCC(=O)c2cc(OC)ccc2OC)c1 | inconclusive: 10% | – |
| c1ccn2cc(-c3ccc4c(c3)OCCO4)nc2c1 | – | inconclusive: 22.4 µM [falling, partial curve] |
| Cc1ccc(-c2noc(CSc3nnc(-c4ccncc4)n3-c3ccc(F)cc3)n2)cc1 | inconclusive: -2.75% | – |
| Cc1[nH]c2ccccc2c1/C=N/Nc1ccccn1 | inconclusive: -22.2% | – |
| C=CCNC(=S)N/N=C/c1ccc(C)cc1C | – | inconclusive: 20 µM [cytotoxic, partial curve] |
| Nc1c(C(=O)c2cccs2)sc2nsc(SCCN3CCCCC3)c12 | – | inconclusive: 25.1 µM [falling, single point] |

| SMILES | activity change, negative = inhibition | Potency |
| --- | --- | --- |
| O=c1c(Cc2ccc(F)cc2)c(O)ccn1C1CCCCC1 | inconclusive: 1.63% | – |
| O=C(CCN1C(=O)S/C(=C\c2ccccc2)C1=O)Nc1ccc(S(=O)(=O)Nc2nccs2)cc1 | – | inconclusive: 35.5 µM [falling, single point] |
| CCN(CC)c1ccc(C(=O)OCC(=O)N2CCCC2)cc1 | inactive: -14% | – |
| Nc1nonc1C(=O)N/N=C/c1cc(Br)ccc1O | inconclusive: 6.16% | – |
| C=CCC[C@@H](Cc1ccc(F)cc1)C(=O)OC[C@@H](NC(=O)[C@@H](CC=C)CC(=O)N[C@H](CO)Cc1ccccc1)C(C)(C)C | inconclusive: -3.83% | – |
| CCOCCc1nn2c(=O)cc(CSCC(=O)Nc3ccc(OC)cc3)nc2s1 | inconclusive: -2.77% | – |
| O=C(Nc1ccccc1CC[N+](=O)[O-])N1CCN(c2ccccc2)CC1 | – | inconclusive: 20 µM [falling, partial curve, poor fit] |
| Cc1cc(Nc2ncc(Cl)cc2Cl)n(-c2ccccc2C)n1 | inactive: 0.374% | – |
| N/C(=N\OC(=O)COc1ccc(Cl)cc1Br)c1cccnc1 | – | inconclusive: 15.8 µM [rising, partial curve, poor fit] |
| COc1cc(C(=S)N2CCN(c3ccccc3Cl)CC2)cc(O)c1O | – | inconclusive: 17.8 µM [falling, partial curve] |
| CCCOc1ccc(/C=C/C(=O)N2CCOCC2)cc1 | inconclusive: 0.787% | – |
| Cc1cc(NC(=O)c2ccc(NC(=O)c3cccs3)cc2)no1 | – | inconclusive: 2.31 µM [rising, full curve] |
| COc1cc(OC)cc(C(=O)Nc2cc(C)on2)c1 | inconclusive: -22.1% | – |
| Cc1cc(=O)n(CC(=O)NCCN2CCOCC2)c2c1c(C)nn2-c1ccccc1 | inactive: -0.749% | – |
| Cc1cccc(C(=O)OCC(=O)NCc2ccc3c(c2)OCO3)c1C | – | inconclusive: 7.31 µM [falling, partial curve, poor fit] |
| CO/N=C/CC(=O)c1cnc(-c2ccccc2)s1 | inconclusive: 1.46% | – |
| O=C(CSCc1cccc(F)c1)N1CCN(c2ccccc2)CC1 | inconclusive: 12.6% | – |
| COC(=O)c1sc(NC(=O)c2oc3ccccc3c2C)nc1C | – | inconclusive: 11.6 µM [falling, partial curve] |
| Cc1ccc2c(c1)nnn2C1CCN(CC(=O)Nc2ccccc2N2CCOCC2)CC1 | inactive: 7.44% | – |
| Cc1[nH][nH]c(=O)c1C(c1ccc(-c2ccc(Cl)c(Cl)c2)o1)c1c(C)[nH][nH]c1=O | inconclusive: -26% | – |
| O=C(N=c1ccn(-c2nc3ccccc3nc2NS(=O)(=O)c2ccc(Cl)cc2)cc1)c1cccs1 | inactive: 6.72% | – |
| O=C(OCC(=O)N1CCCCC1)c1c[nH]c2ccccc12 | – | inconclusive: 3.26 µM [falling, partial curve] |
| CCOC(=O)/C=C/C(=O)Nc1ccc(-c2nnc3n2CCCCC3)cc1 | inconclusive: -18.1% | – |
| CCC(=O)NC(Nc1cccc(C)n1)(C(F)(F)F)C(F)(F)F | – | inconclusive: 16.4 µM [falling, single point] |
| N#Cc1cnc(SCC(=O)NNC(=O)COc2cccc3ccccc23)nc1N | inconclusive: 5.84% | – |
| CCOc1ccc(CN2CCN(C/C=C/c3ccc(OC)cc3)CC2CCO)cc1 (stereo not given) | inactive: -7.33% | – |
